These are yes or no findings as the source states them, for the method shown. Binding seen in cells or lysates may run through a third protein. A result given as binding can be weak or reduced; the word gives no strength.
Target: T1, human JPH2 in pVN155 (pVN155/Jph2) (human) (UniProt Q9BR39)
T1 sequence: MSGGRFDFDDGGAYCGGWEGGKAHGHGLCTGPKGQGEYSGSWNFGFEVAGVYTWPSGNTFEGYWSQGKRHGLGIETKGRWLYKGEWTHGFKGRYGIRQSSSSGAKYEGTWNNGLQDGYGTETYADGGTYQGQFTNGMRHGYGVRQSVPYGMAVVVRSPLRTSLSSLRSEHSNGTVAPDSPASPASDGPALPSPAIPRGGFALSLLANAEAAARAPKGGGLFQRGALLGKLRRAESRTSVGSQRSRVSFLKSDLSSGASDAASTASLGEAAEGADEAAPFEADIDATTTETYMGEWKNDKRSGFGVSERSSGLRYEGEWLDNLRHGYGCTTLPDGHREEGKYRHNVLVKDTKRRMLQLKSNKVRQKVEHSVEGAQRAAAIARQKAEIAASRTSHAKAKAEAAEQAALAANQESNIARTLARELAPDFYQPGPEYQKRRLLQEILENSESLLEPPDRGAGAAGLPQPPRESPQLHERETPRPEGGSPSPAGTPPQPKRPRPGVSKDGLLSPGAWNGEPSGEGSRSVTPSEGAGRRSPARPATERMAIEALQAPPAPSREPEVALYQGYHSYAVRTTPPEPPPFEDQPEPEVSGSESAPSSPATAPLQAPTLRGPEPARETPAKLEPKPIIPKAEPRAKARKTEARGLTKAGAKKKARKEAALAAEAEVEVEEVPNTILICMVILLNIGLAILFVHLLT
Test: split reporter

- binding: binds
Substance: mouse JCN in pVC155 (pVC155/Jcn)
